According to PMC5769602, “Functional assays for the assessment of the pathogenicity of variants of GOSR2, an ER-to-Golgi SNARE involved in progressive myoclonus epilepsies” (Disease Models & Mechanisms, 2017):

B1: Bos1 151-221 wild type (SNARE domain) (domain or fragment, Saccharomyces cerevisiae, UniProt P25385 151-221, looked up)
chain: LYQGLQKEQSVFERGNAQLDYILEMGQQSFENIVEQNKILSKVQDRMSNGLRTLGVSEQTITSINKRVFKD
notes: Bos1, Saccharomyces cerevisiae, SNARE domain, residues 151-221; Forms homo-oligomers of unstated size as the isolated SNARE domain; also called Bos1 wt; wild-type Bos1; source: E. coli BL21 (DE3), purified (Ni2+-NTA, ion exchange)
B2: Bos1 151-221 p.Gly176Trp (domain or fragment, Saccharomyces cerevisiae, UniProt P25385 151-221, looked up)
chain: B1 chain with G26W
notes: Bos1, Saccharomyces cerevisiae, SNARE domain, residues 151-221, with Gly176Trp (orthologous to GOSR2 p.Gly144Trp); also called Bos1 p.Gly176Trp; source: E. coli BL21 (DE3), purified (Ni2+-NTA, ion exchange)
B3: Bos1 151-221 p.Gly176Asp (domain or fragment, Saccharomyces cerevisiae, UniProt P25385 151-221, looked up)
chain: B1 chain with G26D
notes: Bos1, Saccharomyces cerevisiae, SNARE domain, residues 151-221, with the designed Gly176Asp mutation; also called Bos1 p.Gly176Asp; source: E. coli BL21 (DE3), purified (Ni2+-NTA, ion exchange)
B4: Bos1 151-221 p.Arg196del (domain or fragment, Saccharomyces cerevisiae, UniProt P25385 151-221, looked up)
chain: LYQGLQKEQSVFERGNAQLDYILEMGQQSFENIVEQNKILSKVQDMSNGLRTLGVSEQTITSINKRVFKD
notes: Bos1, Saccharomyces cerevisiae, SNARE domain, residues 151-221, with arginine 196 deleted (orthologous to GOSR2 p.Lys164del); also called Bos1 p.Arg196del; source: E. coli BL21 (DE3), purified (Ni2+-NTA, ion exchange)

These binders were tested against Sec22 126-186 (SNARE domain) (yeast) (assay: SEC; quaternary SNARE complexes assembled from equal amounts of purified Sed5 (211-320), Bet1 (1-118), Sec22 (126-186) and one Bos1 (151-221) variant, incubated overnight; Superdex 75, PBS with 200 mM NaCl; both purified).

binding, binds:
B1
B2
B3
B4

Changes are numbered by the printed parent chain. No constants are given. Whether binding was seen depends on the method and setting. Binding calls can cover weak binding; strength is not graded here.
